# All entries are inconclusive by the source's own rule. Clear calls are listed elsewhere. How the calls were made is not given here.
# Test system: Botulinum neurotoxin type F light chain protease (Clostridium botulinum)
# Assay: Botulinum neurotoxin type F light chain protease inhibition, multiplex microsphere flow cytometry, validation set (AID 588459)
# Details: multiplex microsphere protease substrate cleavage assay, at 10 µM, stronger effect = higher value
smiles,measurement,value
CCc1cccc2c1NC1(CCCC1)CC2C (stereo unspecified),inhibition,inconclusive: -46.1%

# From PubChem BioAssay
